From PubChem BioAssay AID248 (DTP/NCI, 2004)
The list does not hold the whole screen: its compounds were picked by chemical class. Other doses and runs of a compound may be missing. T/C: endpoint of the treated group in % of that of the vehicle group. Some doses have a count of surviving animals in place of a T/C: the source holds a T/C of zero for them, seemingly a mark for toxic or unscored doses. Some survivor counts are full or nearly so, which does not show that the dose was tolerated: the source hardly ever lists a survival T/C far under the control, and the zero likely stands for such cases as well. Survivors were counted at the toxicity check, usually on the fifth day, unless a day is given; later deaths do not show. Schedule codes are those of the source, taken here to give the interval after Q, in days (D) or hours (H), and the number of doses after X. Some entries were tested several times; the results are listed from low to high. Signs of the kind (2×) count equal records among those shown. Where survival is the endpoint, the PubChem record calls one and a half times the control and up active, and a quarter to a half above the control has no call in these data; cut-offs in other NCI protocols can differ. Some entries show no survivor count and are marked so; the dose need not have been tolerated. Some T/C values carry the count of animals alive at the toxicity check (mostly the fifth day); without a count or a note in brackets, all were alive then.

System: L1210 leukemia ip in BDF1 mice, survival T/C
Assay: NCI In Vivo Anticancer Drug Screen. Data for tumor model L1210 Leukemia (intraperitoneal) in B6D2F1 (BDF1) mice
Conditions: T/C endpoint: mean survival time, higher T/C = longer survival
[1] = dose: 75.0 mg/kg/injection, schedule: Q01DX001 (ip), vehicle: water
[2] = dose: 100.0 mg/kg/injection, schedule: Q04DX002 (ip), vehicle: saline with Tween-80
[3] = dose: 150.0 mg/kg/injection, schedule: Q01DX001 (ip), vehicle: water
[4] = dose: 200.0 mg/kg/injection, schedule: Q04DX002 (ip), vehicle: saline with Tween-80
[5] = dose: 400.0 mg/kg/injection, schedule: Q04DX002 (ip), vehicle: saline with Tween-80
[6] = dose: 75.0 mg/kg/injection, schedule: Q01DX001 (ip), vehicle: saline

C1CN1
T/C (dose: 0.78 mg/kg/injection, schedule: Q01DX009 (iv), vehicle: saline): 102 % of control
T/C (dose: 1.56 mg/kg/injection, schedule: Q01DX009 (iv), vehicle: saline): 102 % of control
T/C (dose: 3.12 mg/kg/injection, schedule: Q01DX009 (iv), vehicle: saline): 108 % of control
survivor count (dose: 6.25 mg/kg/injection, schedule: Q01DX009 (iv), vehicle: saline): 1 of 6
T/C (dose: 9.38 mg/kg/injection, schedule: Q01DX001 (ip), vehicle: water): 96 % of control [5 of 6 alive]
survivor count (dose: 12.5 mg/kg/injection, schedule: Q01DX009 (iv), vehicle: saline): 1 of 6
T/C (dose: 15.0 mg/kg/injection, schedule: Q01DX001 (ip), vehicle: saline): 103 % of control
T/C (dose: 18.75 mg/kg/injection, schedule: Q01DX001 (ip), vehicle: water): 95 % of control
survivor count (dose: 25.0 mg/kg/injection, schedule: Q01DX009 (iv), vehicle: saline): 2 of 6
T/C (dose: 30.0 mg/kg/injection, schedule: Q01DX001 (ip), vehicle: saline): 106 % of control
survivor count (dose: 37.5 mg/kg/injection, schedule: Q01DX001 (ip), vehicle: water): 0 of 6
survivor count (dose: 50.0 mg/kg/injection, schedule: Q01DX009 (iv), vehicle: saline): 0 of 6
T/C (dose: 60.0 mg/kg/injection, schedule: Q01DX001 (ip), vehicle: saline): 107 % of control
T/C [1]: 104 and 105 % of control
survivor count [1]: 0 of 6
survivor count (dose: 75.0 mg/kg/injection, schedule: Q01DX001 (sc), vehicle: saline): 0 of 6
survivor count (dose: 100.0 mg/kg/injection, schedule: Q01DX009 (iv), vehicle: saline): 0 of 6
survivor count [2]: 0 of 3
T/C [3]: 100 and 109 % of control
survivor count [3]: 0 of 6
survivor count (dose: 150.0 mg/kg/injection, schedule: Q01DX001 (sc), vehicle: saline): 0 of 6
survivor count (dose: 200.0 mg/kg/injection, schedule: Q01DX009 (iv), vehicle: saline): 0 of 6
survivor count [4]: 0 of 3
survivor count (dose: 300.0 mg/kg/injection, schedule: Q01DX001 (ip), vehicle: water): 0 of 6 (2×) and 1 of 6
survivor count (dose: 300.0 mg/kg/injection, schedule: Q01DX001 (sc), vehicle: saline): 0 of 6
survivor count [5]: 0 of 3

CC(=O)N/N=C(\N)N[N+](=O)[O-]
T/C (dose: 25.0 mg/kg/injection, schedule: Q01DX009 (ip), vehicle: saline): 102 % of control [survivor count not shown]
T/C (dose: 50.0 mg/kg/injection, schedule: Q01DX009 (ip), vehicle: saline): 96 [survivor count not shown] and 101 % of control [survivor count not shown]
T/C (dose: 100.0 mg/kg/injection, schedule: Q01DX009 (ip), vehicle: saline): 101 [survivor count not shown] and 120 % of control [survivor count not shown]
T/C (dose: 200.0 mg/kg/injection, schedule: Q01DX009 (ip), vehicle: saline): 93 [survivor count not shown] and 101 % of control [survivor count not shown]

NC(=O)CCCc1ccc(N(CCCl)CCCl)cc1
T/C (dose: 1.0 mg/kg/injection, schedule: Q01DX009 (ip), vehicle: saline): 113 % of control
T/C (dose: 2.5 mg/kg/injection, schedule: Q01DX009 (ip), vehicle: saline): 117 % of control
T/C (dose: 5.0 mg/kg/injection, schedule: Q01DX009 (ip), vehicle: saline): 123 % of control
T/C (dose: 8.3 mg/kg/injection, schedule: Q01DX009 (ip), vehicle: saline): 107 and 125 % of control
T/C (dose: 12.5 mg/kg/injection, schedule: Q01DX009 (ip), vehicle: saline): 114 % of control
T/C (dose: 18.8 mg/kg/injection, schedule: Q01DX009 (ip), vehicle: saline): 137 % of control [5 of 6 alive]
T/C (dose: 28.2 mg/kg/injection, schedule: Q01DX009 (ip), vehicle: saline): 88 % of control [5 of 6 alive]
T/C [6]: 126 % of control [5 of 6 alive]
survivor count (dose: 150.0 mg/kg/injection, schedule: Q01DX001 (ip), vehicle: saline): 1 of 6
survivor count (dose: 300.0 mg/kg/injection, schedule: Q01DX001 (ip), vehicle: saline): 0 of 6

O=[N+]([O-])c1cc(S(=O)(=O)c2cc([N+](=O)[O-])c(Cl)c([N+](=O)[O-])c2)ccc1Cl
T/C (dose: 100.0 mg/kg/injection, schedule: Q04DX002 (ip), vehicle: saline): 90 % of control
T/C (dose: 200.0 mg/kg/injection, schedule: Q04DX002 (ip), vehicle: saline): 90 % of control
survivor count (dose: 400.0 mg/kg/injection, schedule: Q04DX002 (ip), vehicle: saline): 2 of 3

Cc1ccc(OP(=S)(Cl)Cl)cc1
T/C (dose: 100.0 mg/kg/injection, schedule: Q04DX003 (ip), vehicle: saline with Tween-80): 103 % of control
T/C (dose: 200.0 mg/kg/injection, schedule: Q04DX003 (ip), vehicle: saline with Tween-80): 103 % of control
T/C (dose: 400.0 mg/kg/injection, schedule: Q04DX003 (ip), vehicle: saline with Tween-80): 103 % of control

CNCCN(C)C(=N)C(=N)N(C)CCNC
T/C [2]: 93 % of control
T/C [4]: 90 % of control
T/C [5]: 90 % of control [2 of 3 alive]

CCNCCN=C(N)C(N)=NCCNCC
T/C [2]: 93 % of control [survivor count not shown]
T/C [4]: 104 % of control [survivor count not shown]
T/C [5]: 97 % of control [survivor count not shown]

CCCCCCC(C)(C)COP1OCC(C)(C)CO1
T/C (dose: 100.0 mg/kg/injection, schedule: Q01DX001 (ip), vehicle: saline): 86 % of control
T/C (dose: 100.0 mg/kg/injection, schedule: Q04DX003 (ip), vehicle: saline): 99 % of control
T/C (dose: 200.0 mg/kg/injection, schedule: Q01DX001 (ip), vehicle: saline): 102 % of control
T/C (dose: 200.0 mg/kg/injection, schedule: Q04DX003 (ip), vehicle: saline): 102 % of control
T/C (dose: 400.0 mg/kg/injection, schedule: Q01DX001 (ip), vehicle: saline): 90 % of control
T/C (dose: 400.0 mg/kg/injection, schedule: Q04DX003 (ip), vehicle: saline): 99 % of control

NP(=O)(OCCC(=O)O)N(CCCl)CCCl (stereo unspecified)
T/C (dose: 300.0 mg/kg/injection, schedule: Q01DX001 (ip), vehicle: saline with Tween-80): 98 % of control
T/C (dose: 500.0 mg/kg/injection, schedule: Q01DX001 (ip), vehicle: saline with Tween-80): 110 % of control

ClC1CSC1
T/C (dose: 50.0 mg/kg/injection, schedule: Q01DX001 (ip), vehicle: carboxymethylcellulose (CMC)): 102 % of control
T/C (dose: 100.0 mg/kg/injection, schedule: Q01DX001 (ip), vehicle: carboxymethylcellulose (CMC)): 96 % of control
T/C (dose: 200.0 mg/kg/injection, schedule: Q01DX001 (ip), vehicle: carboxymethylcellulose (CMC)): 96 % of control
T/C (dose: 400.0 mg/kg/injection, schedule: Q01DX001 (ip), vehicle: carboxymethylcellulose (CMC)): 96 % of control

O=[N+]([O-])C1CCC(P2(=O)NC3CCCCC3S2)CC1 (stereo unspecified)
T/C (dose: 25.0 mg/kg/injection, schedule: Q04DX002 (ip), vehicle: saline with Tween-80): 94 % of control
T/C (dose: 50.0 mg/kg/injection, schedule: Q04DX002 (ip), vehicle: saline with Tween-80): 97 % of control
T/C [2]: 97 and 98 % of control
T/C [4]: 103 % of control
survivor count [5]: 2 of 3

FC(Cl)C(F)(F)Sc1ccc(Cl)cc1 (stereo unspecified)
T/C (dose: 100.0 mg/kg/injection, schedule: Q01DX009 (ip), vehicle: Klucel (hydroxypropylcellulose) (HPC)): 106 % of control
T/C (dose: 100.0 mg/kg/injection, schedule: Q04DX003 (ip), vehicle: Klucel (hydroxypropylcellulose) (HPC)): 100 % of control
T/C (dose: 200.0 mg/kg/injection, schedule: Q01DX009 (ip), vehicle: Klucel (hydroxypropylcellulose) (HPC)): 97 % of control
T/C (dose: 200.0 mg/kg/injection, schedule: Q04DX003 (ip), vehicle: Klucel (hydroxypropylcellulose) (HPC)): 100 % of control
survivor count (dose: 400.0 mg/kg/injection, schedule: Q01DX009 (ip), vehicle: Klucel (hydroxypropylcellulose) (HPC)): 3 of 6
T/C (dose: 400.0 mg/kg/injection, schedule: Q04DX003 (ip), vehicle: Klucel (hydroxypropylcellulose) (HPC)): 107 % of control

O=[N+]([O-])c1cc([N+](=O)[O-])c(F)c([N+](=O)[O-])c1
T/C [6]: 94 % of control [survivor count not shown]
